Test results from article PMC5379069, “A Pseudomonas T6SS effector recruits PQS-containing outer membrane vesicles for iron acquisition” (Nature Communications, 2017).
No constants are given. Whether binding was seen depends on the method and setting. In cells and extracts the contact can be indirect.

The chains behind the UniProt entries cited, without tags or fusion partners.
UniProt Q9I741: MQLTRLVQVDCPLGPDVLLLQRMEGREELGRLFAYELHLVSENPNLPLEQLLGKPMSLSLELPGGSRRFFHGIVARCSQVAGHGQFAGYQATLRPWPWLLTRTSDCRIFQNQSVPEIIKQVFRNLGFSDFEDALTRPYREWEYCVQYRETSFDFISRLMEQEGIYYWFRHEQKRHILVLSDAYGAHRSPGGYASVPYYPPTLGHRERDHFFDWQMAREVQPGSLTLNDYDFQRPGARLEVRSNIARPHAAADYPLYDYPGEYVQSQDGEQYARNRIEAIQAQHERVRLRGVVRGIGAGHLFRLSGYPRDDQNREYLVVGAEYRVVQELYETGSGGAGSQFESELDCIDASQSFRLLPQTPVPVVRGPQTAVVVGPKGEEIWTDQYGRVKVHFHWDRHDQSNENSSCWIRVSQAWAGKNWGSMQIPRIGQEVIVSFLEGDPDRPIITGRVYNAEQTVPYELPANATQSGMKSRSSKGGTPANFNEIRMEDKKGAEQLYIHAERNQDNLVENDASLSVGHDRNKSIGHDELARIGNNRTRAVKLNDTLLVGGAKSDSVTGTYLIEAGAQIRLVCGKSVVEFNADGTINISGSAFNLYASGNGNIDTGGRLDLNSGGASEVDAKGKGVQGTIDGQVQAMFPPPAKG
UniProt Q9I737: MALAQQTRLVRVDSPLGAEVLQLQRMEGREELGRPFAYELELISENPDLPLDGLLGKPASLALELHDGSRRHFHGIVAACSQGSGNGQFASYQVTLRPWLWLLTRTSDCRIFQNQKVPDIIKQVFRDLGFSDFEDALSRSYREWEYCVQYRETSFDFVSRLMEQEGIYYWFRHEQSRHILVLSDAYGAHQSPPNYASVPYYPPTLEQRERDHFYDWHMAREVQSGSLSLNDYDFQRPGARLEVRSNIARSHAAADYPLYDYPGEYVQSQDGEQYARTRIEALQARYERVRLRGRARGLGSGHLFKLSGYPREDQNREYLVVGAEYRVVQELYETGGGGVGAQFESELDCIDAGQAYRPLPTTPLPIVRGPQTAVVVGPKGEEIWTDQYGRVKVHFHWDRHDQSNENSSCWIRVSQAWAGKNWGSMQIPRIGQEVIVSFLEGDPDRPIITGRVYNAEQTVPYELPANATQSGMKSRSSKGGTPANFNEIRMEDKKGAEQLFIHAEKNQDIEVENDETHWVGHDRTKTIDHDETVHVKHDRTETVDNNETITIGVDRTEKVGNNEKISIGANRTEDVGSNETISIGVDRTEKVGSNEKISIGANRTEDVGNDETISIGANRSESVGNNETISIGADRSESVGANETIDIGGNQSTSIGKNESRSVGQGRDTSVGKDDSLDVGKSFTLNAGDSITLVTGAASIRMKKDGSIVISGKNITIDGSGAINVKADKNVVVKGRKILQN

Target: PA0533 (Pseudomonas aeruginosa PAO1) (UniProt Q9I603)
Assay: pull-down; only the target purified

## VgrG1a-VSVG (from UniProt Q9I741 1-643)
  binding: no binding

## VgrG1b-VSVG (from UniProt Q9I737 1-741)
  binding: no binding
